According to US9629835B1, “Method for treating tau-associated diseases” (NATIONAL TAIWAN NORMAL UNIVERSITY, priority 2016, dated 2017):
Some results were stated once for a whole list of compounds, not compound by compound.

Tested on: tau protein
Experiment: Western blot of phosphorylated tau (Ser202, Thr231, Ser396) in tauRD-DsRed SH-SY5Y cells
Type: cell-based, human
Conditions: 10 μM, range printed for compounds (I) and (II) together

Cc1ccc(-c2cc(-c3ccncc3)nc3ccccc23)cc1 [compound (I)]
expression level of phosphorylated tau at Ser202 with respect to untreated cells (100%): 30%-59% | expression level of phosphorylated tau at Ser396 with respect to untreated cells (100%): 53%-61% | expression level of phosphorylated tau at Thr231 with respect to untreated cells (100%): 32%-62%
